# In PubChem BioAssay AID328 (DTP/NCI, 2004):
# The list shows only some results of the screen, not a fair sample: it gathers tests that were run many times, whatever their T/C, doses with no T/C, and many T/C values between a quarter and a half above the control. Other doses and runs of a compound stand elsewhere. T/C is the treated group as % of the vehicle group. Some doses have a count of surviving animals in place of a T/C: the source files T/C as zero there, which appears to mark a toxic dose or a test without result, not a measured value. Some doses without a T/C left all or most animals alive at the check, yet need not have been tolerated: the source hardly ever lists a survival T/C far under the control, and the zero likely stands for such cases as well. Survivors were counted at the toxicity check, usually on the fifth day, unless a day is given; later deaths do not show. Schedules are NCI's codes, taken here to give the interval after Q, in days (D) or hours (H), and the number of doses after X. Some doses were run more than once; their values stand side by side, smallest first. For survival time, the PubChem record calls one and a half times the control and up active, and a quarter to a half above the control has no call in these data; cut-offs in other NCI protocols can differ. Some T/C values are followed by the survivors on the day toxicity was checked, most often the fifth; where none is given, no animal had died by that day. Additions like (4×) say how often a value occurs here.
# Tested on: BDF1 mice, P388 leukemia ip, median survival T/C
# Test: NCI In Vivo Anticancer Drug Screen. Data for tumor model P388 Leukemia (intraperitoneal) in B6D2F1 (BDF1) mice
# Conditions: T/C endpoint: median survival time, vehicle: Klucel (hydroxypropylcellulose) (HPC), higher T/C = longer survival
# Procedure, shortened: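 Transplantable tumour in mice; compound vs vehicle dosing; survival scored; ratio of treated to control reported.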
# [1] = dose: 200.0 mg/kg/injection, schedule: Q01DX001 (ip)
smiles,measurement,setting,value
O=C1C=CN(C2OC(CO)C(O)C2O)C(=O)C1 (stereo not given),T/C,"dose: 50.0 mg/kg/injection, schedule: Q01DX001 (ip)","87, 90, 91, 92, 94, 95, 96, 97, 99, 100 (3×), 101, 102, 104, 105, 106, 107 (4×), 108 (2×), 109, 110, 115, 116, 119, 120, 121 % of control"
same,T/C,"dose: 50.0 mg/kg/injection, schedule: Q01DX005 (ip), evaluated on day 30","94, 96, 98 (2×), 100, 102 (2×), 104, 105, 107, 107 [2 of 3 alive], 108, 109 (2×), 112 (2×), 113, 114 (4×), 115, 116, 119, 120 (2×), 122, 125, 128, 132, 139 % of control"
same,T/C,"dose: 50.0 mg/kg/injection, schedule: Q01DX005 (ip), evaluated on day 35",110 and 122 % of control
same,T/C,"dose: 50.0 mg/kg/injection, schedule: Q01DX009 (ip), evaluated on day 30","96, 98, 100 (2×), 103 (2×), 105, 106 (3×), 107 (3×), 108, 109 (2×), 110, 111 (2×), 112 (3×), 114, 115, 116, 117, 119, 121, 123, 124, 127, 128, 132 % of control"
same,T/C,"dose: 50.0 mg/kg/injection, schedule: Q01DX009 (ip), evaluated on day 35",108 % of control
same,survivor count,"dose: 50.0 mg/kg/injection, schedule: Q01DX009 (ip)",3 of 3
same,T/C,"dose: 50.0 mg/kg/injection, schedule: Q04DX002 (ip), evaluated on day 30","91, 93, 94, 96 (3×), 97, 99 (2×), 101, 102, 104 (3×), 105, 106 (3×), 107 (3×), 108, 110 (2×), 111, 113, 116, 128, 267 % of control"
same,T/C,"dose: 50.0 mg/kg/injection, schedule: Q04DX002 (ip), evaluated on day 35",102 % of control
same,survivor count,"dose: 50.0 mg/kg/injection, schedule: Q04DX002 (ip)",3 of 3
same,T/C,"dose: 50.0 mg/kg/injection, schedule: Q04DX003 (ip), evaluated on day 30","90, 93, 95, 96, 98, 99 (2×), 100 (5×), 102 (2×), 103, 104 (2×), 105, 106 (4×), 107, 108, 109, 110, 112, 113, 118 % of control"
same,T/C,"dose: 50.0 mg/kg/injection, schedule: Q04DX003 (ip), evaluated on day 35",118 % of control
same,survivor count,"dose: 50.0 mg/kg/injection, schedule: Q04DX003 (ip)",3 of 3
same,T/C,"dose: 100.0 mg/kg/injection, schedule: Q01DX001 (ip)","90, 91, 95 (2×), 96, 97 (2×), 98 (2×), 99, 100 (5×), 101 (4×), 102 (3×), 104, 106 (2×), 110, 111, 112, 115, 127 % of control"
same,T/C,"dose: 100.0 mg/kg/injection, schedule: Q01DX005 (ip), evaluated on day 30","93, 97, 98, 100 (2×), 105, 106 (3×), 107 (2×), 109 (2×), 110, 112 (2×), 113, 114 (2×), 117, 119, 121 (2×), 122 (3×), 122 [4 of 6 alive], 123, 124, 139 % of control"
same,T/C,"dose: 100.0 mg/kg/injection, schedule: Q01DX005 (ip), evaluated on day 35",120 and 121 % of control
same,survivor count,"dose: 100.0 mg/kg/injection, schedule: Q01DX005 (ip)",3 of 3
same,T/C,"dose: 100.0 mg/kg/injection, schedule: Q01DX009 (ip), evaluated on day 30","94, 100, 101, 102, 102 [2 of 3 alive], 103, 106, 107, 108, 111 (5×), 112, 113 [5 of 6 alive], 115 (3×), 117, 118, 119 (2×), 120, 122, 123, 125, 127, 128, 131, 132, 136, 138 % of control"
same,T/C,"dose: 100.0 mg/kg/injection, schedule: Q01DX009 (ip), evaluated on day 35",103 % of control
same,survivor count,"dose: 100.0 mg/kg/injection, schedule: Q01DX009 (ip)",3 of 3
same,T/C,"dose: 100.0 mg/kg/injection, schedule: Q04DX002 (ip), evaluated on day 30","91 (2×), 94, 96, 97 [5 of 6 alive], 98, 99 (3×), 100 (2×), 102 (2×), 103 (2×), 104 (3×), 106 (3×), 107 (2×), 108 (2×), 109, 120, 128, 144 % of control"
same,T/C,"dose: 100.0 mg/kg/injection, schedule: Q04DX002 (ip), evaluated on day 35",105 % of control
same,survivor count,"dose: 100.0 mg/kg/injection, schedule: Q04DX002 (ip)",3 of 3
same,T/C,"dose: 100.0 mg/kg/injection, schedule: Q04DX003 (ip), evaluated on day 30","92, 93 (2×), 94, 95, 97, 98 (2×), 99, 100, 101, 103 (2×), 104, 105 (2×), 106 (2×), 107, 108 (5×), 111 (3×), 115, 116, 125, 126 % of control"
same,T/C,"dose: 100.0 mg/kg/injection, schedule: Q04DX003 (ip), evaluated on day 35",121 % of control
same,T/C,[1],"92, 94, 95, 97, 99 (2×), 100 (2×), 101, 102 (3×), 103, 104 (2×), 105 (2×), 106, 107 (3×), 107 [5 of 6 alive], 108 (2×), 111, 112, 129, 139, 140 % of control"
same,survivor count,[1],6 of 6
same,T/C,"dose: 200.0 mg/kg/injection, schedule: Q01DX005 (ip), evaluated on day 30","98, 103 (2×), 104, 105 (3×), 107 (2×), 109, 111 (2×), 112 (2×), 116, 118 (2×), 119, 121 (2×), 122 (3×), 123, 126, 127, 129, 133, 135 % of control (2×)"
same,T/C,"dose: 200.0 mg/kg/injection, schedule: Q01DX005 (ip), evaluated on day 35",113 and 126 % of control [5 of 6 alive]
same,survivor count,"dose: 200.0 mg/kg/injection, schedule: Q01DX005 (ip)",6 of 6
same,T/C,"dose: 200.0 mg/kg/injection, schedule: Q01DX009 (ip), evaluated on day 30","89, 95, 96, 96 [2 of 3 alive], 97 (3×), 98, 99 (2×), 100, 101, 102 (2×), 103, 105, 106, 107, 108, 109, 110 (2×), 111, 112 (2×), 113, 115, 116, 117, 118, 122 (2×), 139, 140 % of control"
same,T/C,"dose: 200.0 mg/kg/injection, schedule: Q01DX009 (ip), evaluated on day 35",112 % of control
same,survivor count,"dose: 200.0 mg/kg/injection, schedule: Q01DX009 (ip)",1 of 3
same,T/C,"dose: 200.0 mg/kg/injection, schedule: Q04DX002 (ip), evaluated on day 30","91, 92, 93, 94 [5 of 6 alive], 95 (2×), 98 (2×), 99 (2×), 100, 101, 102, 106 (3×), 107 (4×), 108, 110 (2×), 111 (3×), 112, 113, 115 % of control"
same,T/C,"dose: 200.0 mg/kg/injection, schedule: Q04DX002 (ip), evaluated on day 35",119 % of control
same,survivor count,"dose: 200.0 mg/kg/injection, schedule: Q04DX002 (ip)",2 of 3
same,T/C,"dose: 200.0 mg/kg/injection, schedule: Q04DX003 (ip), evaluated on day 30","90, 92, 93, 94, 96, 97, 98, 101, 103 (3×), 104, 105, 106 (2×), 106 [5 of 6 alive], 107 (3×), 108 (2×), 109 (2×), 110, 111, 115, 117, 118, 123, 126 % of control"
same,T/C,"dose: 200.0 mg/kg/injection, schedule: Q04DX003 (ip), evaluated on day 35",119 % of control
same,survivor count,"dose: 200.0 mg/kg/injection, schedule: Q04DX003 (ip)",3 of 3
same,T/C,"dose: 400.0 mg/kg/injection, schedule: Q01DX001 (ip)","88, 91, 95 (2×), 95 [5 of 6 alive], 96, 97, 98 (2×), 99, 100 (2×), 101 (2×), 102, 103, 105, 106 (2×), 107 (2×), 108, 109, 110 (2×), 111, 112, 115, 117, 125 % of control"
same,T/C,"dose: 400.0 mg/kg/injection, schedule: Q01DX005 (ip), evaluated on day 30","94, 97, 108, 110, 112, 113, 114 (5×), 115 (2×), 117, 122 [5 of 6 alive], 123 (3×), 124, 128, 129 [2 of 3 alive], 130, 133, 134, 136, 142, 153 % of control"
same,T/C,"dose: 400.0 mg/kg/injection, schedule: Q01DX005 (ip), evaluated on day 35",96 and 108 % of control
same,survivor count,"dose: 400.0 mg/kg/injection, schedule: Q01DX005 (ip)","5 of 6, 3 of 3, 6 of 6"
same,T/C,"dose: 400.0 mg/kg/injection, schedule: Q01DX009 (ip), evaluated on day 30","86 (2×), 87, 92 (2×), 94, 97, 99, 100 (4×), 103 (4×), 104, 105, 106 (2×), 108, 109, 110, 111, 119 (2×), 121 (2×), 122, 136 % of control"
same,T/C,"dose: 400.0 mg/kg/injection, schedule: Q01DX009 (ip), evaluated on day 35",94 % of control
same,survivor count,"dose: 400.0 mg/kg/injection, schedule: Q01DX009 (ip)","2 of 3, 3 of 3, 6 of 6"
same,T/C,"dose: 400.0 mg/kg/injection, schedule: Q04DX002 (ip), evaluated on day 30","91, 92, 95 (2×), 96 (2×), 99, 101 (4×), 103 (2×), 104, 105, 107, 108, 109, 111 (2×), 112 (2×), 113, 115, 116 (2×), 119, 122 % of control [5 of 6 alive]"
same,T/C,"dose: 400.0 mg/kg/injection, schedule: Q04DX002 (ip), evaluated on day 35",102 % of control
same,survivor count,"dose: 400.0 mg/kg/injection, schedule: Q04DX002 (ip)",3 of 3 and 6 of 6
same,T/C,"dose: 400.0 mg/kg/injection, schedule: Q04DX003 (ip), evaluated on day 30","92, 93, 96 (2×), 97, 98 (2×), 99, 100 (4×), 101 (3×), 104, 105 (2×), 106, 108, 109 (3×), 110, 111, 112, 113, 115, 119, 120, 252 % of control"
same,T/C,"dose: 400.0 mg/kg/injection, schedule: Q04DX003 (ip), evaluated on day 35",118 % of control
